From patent US4292319A, “Antiphlogistic pharmaceutical compositions and method of use” (Boehringer Ingelheim GmbH, priority 1977, dated 1981)
Like-named read-outs stand apart in the source and are kept apart here.

Legend:
[1] = system: stomach of the rat; assay: Test for ulcerogenic effect on the stomach of the rat; assay type: in vivo, rat (Chbb:THOM); details: oral, 3 subsequent days
Method: (§1) (1) Test for ulcerogenic effect on the stomach of the rat
(§2) The test was carried out on male and female (1:1) Chbb:THOM-rats with a body weight between 130 to 150 gm at the beginning of the study.
(§3) The test substances (non-steroidal anti-phlogistics or mixtures of these antiphlogistics with pirenzepine dihydrochloride) were administered as triturations in 1% tylose (1 ml/100 gm animal) by way of an esophageal tube once a day on three successive days.
(§4) Four hours after the last administration (i.e. on the 3rd day) the animals were killed by an over-dose of ether. The stomachs wer dissected, cut along the great curvature and washed under flowing water for subsequent macroscopic evaluation.

[2] = as above; assay type: in vivo, rat (Chbb:THOM); details: in vivo, po, 3 subsequent days, read-out: ED50-ulcer
Method: as §1, §2, §3, §4

## COc1ccc2cc([C@H](C)C(=O)O)ccc2c1 [F, d-2-(6-methoxy-2-naphthyl)-propionic acid]
[1]; antiphlogistic 1.25 mgm/kg + A 200 mgm/kg
  Ratio of animals with ulcers: 1/20
[1]; antiphlogistic 1.25 mgm/kg + A 400 mgm/kg
  Ratio of animals with ulcers: 1/20
[1]; antiphlogistic 1.25 mgm/kg, without A
  Ratio of animals with ulcers: 2/19
[1]; antiphlogistic 2.5 mgm/kg + A 200 mgm/kg
  Ratio of animals with ulcers: 4/20
[1]; antiphlogistic 2.5 mgm/kg + A 400 mgm/kg
  Ratio of animals with ulcers: 0/20
[1]; antiphlogistic 2.5 mgm/kg, without A
  Ratio of animals with ulcers: 4/19
[1]; antiphlogistic 5.0 mgm/kg + A 200 mgm/kg
  Ratio of animals with ulcers: 6/20
[1]; antiphlogistic 5.0 mgm/kg + A 400 mgm/kg
  Ratio of animals with ulcers: 5/20
[1]; antiphlogistic 5.0 mgm/kg, without A
  Ratio of animals with ulcers: 15/19
[1]; antiphlogistic 10.0 mgm/kg + A 200 mgm/kg
  Ratio of animals with ulcers: 10/20
[1]; antiphlogistic 10.0 mgm/kg + A 400 mgm/kg
  Ratio of animals with ulcers: 10/20
[1]; antiphlogistic 10.0 mgm/kg, without A
  Ratio of animals with ulcers: 16/19
[1]; antiphlogistic 20.0 mgm/kg + A 200 mgm/kg
  Ratio of animals with ulcers: 17/20
[1]; antiphlogistic 20.0 mgm/kg + A 400 mgm/kg
  Ratio of animals with ulcers: 14/20
[2]; with A 200 mgm/kg
  TD50: 7.9 mg/kg
[2]; with A 400 mgm/kg
  TD50: 10.4 mg/kg
[2]; without A
  TD50: 3.6 mg/kg
